{
  "source": "paper PMC6430473",
  "system": "RNA polymerase holoenzyme (Escherichia coli)",
  "assay": "EMSA",
  "details": "RNAP alone; commercial protein; label: FAM; probe letters rebuilt from the primers and the genome",
  "note": "For at least one entry, the source does not settle the construct or the ends of the probe.",
  "data": [
    {"sequence": "AGTTCGGTGCGCAGGAAGGACATGGGGGACACTCCAGGGACAAGAACGACAGTCCTGCGGACAGCGCGCAGGGGGCACTAGTGTGCGGGAAAGCGACCGCTCCCGCAGCCGCGATGTGATCGGTGCGGCAATGGTGTTTTCTGTGGGGACGATCACACCACGCGACGCGCGCACAGACCAAGATGCCCGCCTTACCGCGCTCGGGTGTCGAGCCCGGTTCTCTAGGGAGATCACCATGTCCATATTCAGGACCGCAAGCACGCTCGCTTTGGCCACCGCCCTCGCACTGGCCGCCGGGCCGGCCTTCAGCTATTCCA (double strand) [P-191/+126]", "values": [
      {"measurement": "binding result", "value": "binds"}
    ]}
  ]
}
